# PubChem BioAssay AID1259308 – NCATS | 2017
# Test: 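Knock-downs that increase output of a recombinant reporter protein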 (primary screen)
# Cell system: human HEK293 embryonic kidney cells stably expressing firefly luciferase (HEK-CMV-Luc2-Hygro)
# Reagents: single siRNA against human genes, 0.8 pmol siRNA per well
# Timing: 72 h
# Read-out: 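Reporter luminescence and viable-cell signal on separate replicate plates, given as percent of non-targeting control and median/MAD z-scores, plus per-cell luciferase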
# Direction: total luciferase, z-score and total luciferase, % of control: higher = more reporter protein produced; luciferase per cell, z-score: higher = more reporter output per viable cell; viable cells, % of control: higher = more viable cells
# Call rule: 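Active when the median/MAD z-score for overall luciferase is greater than 3; a gene was taken forward for validation with new siRNAs if at least two of its three siRNAs passed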
# Meaning of the calls: active = raised luciferase; inactive = no rise
# The whole screen tested about 59,000 reagents; this is an unselected part. About 1,510 of them (2.6%) count as active. 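Calls use total luciferase alone and ignore viability, so some active siRNAs may act by altering cell number.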 Unmarked entries are inactive. Reagents against one gene are numbered here. No sequences are given here.
gene,reagent no.,"total luciferase, z-score","total luciferase, % of control","luciferase per cell, z-score","viable cells, % of control"
ITIH4,1,-0.946,63.1,-1.53,105
ITIH4,2,1.69,116,1.06,97.7
ITIH4,3,0.114,84.2,-0.159,98
RERG,1,-0.802,65.9,-1.14,99.6
RERG,2,-0.454,72.9,-0.0361,82.2
RERG,3,-0.429,73.3,-0.509,93.7
JMJD4,1,-0.0985,79.9,-0.603,105
JMJD4,2,-0.462,72.7,-0.856,102
JMJD4,3,0.00513,82,0.285,85
PTPRD,1,1.23,106,1.82,73.7
PTPRD,2,0.605,93.9,0.135,101
PTPRD,3,0.853,98.9,0.735,91
FIGN,1,0.166,85.2,0.289,88.2
FIGN,2,-1.97,42.7,-1.81,76.9
FIGN,3,0.0649,83.2,0.287,86.2

Laid out differently: 2 of the entries above.
PTPRD #2 — total luciferase, z-score: 0.605; total luciferase, % of control: 93.9; luciferase per cell, z-score: 0.135; viable cells, % of control: 101
PTPRD #3 — total luciferase, z-score: 0.853; total luciferase, % of control: 98.9; luciferase per cell, z-score: 0.735; viable cells, % of control: 91

The list goes on.
gene,reagent no.,"total luciferase, z-score","total luciferase, % of control","luciferase per cell, z-score","viable cells, % of control"
SPDYE10,1,0.449,90.8,0.291,94
SPDYE10,2,1.52,112,0.591,107
SPDYE10,3,-0.0222,81.4,0.436,81.1
ZFHX4,1,-1.02,61.6,-0.622,81.1
ZFHX4,2,-1.32,55.5,-1.65,95.8
ZFHX4,3,0,81.9,-0.476,104
RPTN,1,1.54,113,0.783,102
RPTN,2,1.75,117,1.64,84.7
RPTN,3,4.7 (active),175,3.47,78.6
